The subject of data set [1] is rats with myocardial infarction (left coronary artery ligation). As to the kind of experiment: Effects of angiotensin-(1-9) administration on hemodynamic parameters and left ventricle weight in infarcted rats. Format: in vivo, Sprague Dawley rats. Particulars: infarcted rats (MI), osmotic mini-pump 14 days, average ± SEM. The procedure:
For studies with angiotensin-(1-9) 28 rats were randomly distributed into two groups and underwent a sham surgery (n=8) or infarction following left coronary artery ligation (n=20). The infarcted rats were randomized to receive the either the carrier, angiotensin-(1-9) (463 ng/kg of body weight for 14 days) or angiotensin-(1-9) plus A779 (463 ng of angiotensin-(1-9)/kg of body weight/min and 100 ng of A779/kg/min for 14 days) by means of osmotic mini-pumps (ALZET) implanted into the jugular under sedation with ketamine-HCl/xilazine (35/7 mg/kg intraperitoneal, respectively).
(§1) Systolic blood pressure (SBP) was determined by using the “tail-cuff” method by investigators who were blind to the treatment group. Left ventricle function was determined by transthoracic bidimensional echocardiography using a Sonos 5000 equipped with a 5 to 12 MHz sectorial electronic ultraband S12 Philips transducer. The following echocardiographic parameters were determined: left ventricular end-systolic diameter (LVESD), left ventricular end diastolic diameter (LVEDD), left ventricular fractional shortening (LVFS), left ventricular anterior wall thickness (LVAWT), and left ventricular posterior wall thickness (LLVWT). […]

Data set [2] deals with sham and infarcted rats (left coronary artery ligation). As to the kind of experiment: Effect of candesartan and enalapril on blood pressure, morphometry and function of the left ventricle after coronary artery ligation. Format: in vivo, Sprague Dawley rats. The note with it: 10 mg/kg daily by gavage, 8 weeks, average ± SEM. Here is the method: Male Sprague Dawley rats were kept in cages with access to water and food ad libitum. This procedure was performed in accordance with the Guide for the Care and Use of Laboratory Animals, published by “U.S. National Institutes of Health” (NIH publication No 85-23, revised 1985) and was approved by our Institutional Ethics Committee. […] Infarct size in survivors was determined by planimetry of endocardial circumference of left ventricle on histological sections. […]
as §1

No end group written: not given here.

With DRVYIHPFH [angiotensin-(1-9)], the BW entry in data set [1] is given as “without observing changes”; in data set [1] (listed as Ang-(1-9)), 274 ± 24 g.
In the case of `CCOC(=O)[C@H](CCc1ccccc1)N[C@@H](C)C(=O)N1CCC[C@H]1C(=O)O` [enalapril], the BW in data set [2] (infarcted rats (MI)) came to 345 ± 4 g; in data set [2] (sham rats), 350 ± 7 g.

For the origin of these results see patent US9132164B2, “Pharmaceutical compositions comprising angiotensin-(1-9), derivatives thereof, or a vector expressing ACE2, useful for treating cardiovascular, pulmonary, cerebral, and/or renal remodeling” (PONTIFICIA UNIVERSIDAD CATOLICA DE CHILE, priority 2008, dated 2015).
